# Primary screen of a compound library

Protein sequences, listed by entry. Tags and fused reporters are not part of them. Residues count along the entry.
UniProt Q4DA54, 1-478: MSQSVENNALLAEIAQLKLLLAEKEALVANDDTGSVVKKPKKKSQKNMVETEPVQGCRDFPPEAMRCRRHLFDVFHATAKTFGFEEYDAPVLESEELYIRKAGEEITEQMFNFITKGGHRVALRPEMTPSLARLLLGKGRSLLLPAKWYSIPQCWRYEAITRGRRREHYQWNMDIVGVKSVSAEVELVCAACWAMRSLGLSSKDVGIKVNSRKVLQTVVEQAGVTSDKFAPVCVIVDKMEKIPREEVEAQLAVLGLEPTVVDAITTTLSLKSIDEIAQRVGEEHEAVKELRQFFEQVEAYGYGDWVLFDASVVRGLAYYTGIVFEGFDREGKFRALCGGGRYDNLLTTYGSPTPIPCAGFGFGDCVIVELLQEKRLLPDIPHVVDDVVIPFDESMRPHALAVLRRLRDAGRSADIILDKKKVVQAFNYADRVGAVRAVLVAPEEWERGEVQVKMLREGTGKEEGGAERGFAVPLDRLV

From ChEMBL document CHEMBL3988442, “University of Dundee, Small-Polar-MMV Screening Library” (2021).

Toxoplasma: 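Assay of Toxoplasma gondii numbers, read through their beta-galactosidase reporter with a colour substrate. Tested at 10 µM. Higher reads as fewer parasites (inferred from which compounds were picked for retests). Of about 67,000 compounds tested this way, about 260 (0.38%) reached 50% or more in at least one test.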
TcHisRS: 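Histidine-tRNA ligase, Trypanosoma cruzi CL Brener (UniProt Q4DA54). Enzyme assay of histidyl-tRNA synthetase; the read-out is not stated. Tested at 30 µM. The record gives no direction; compounds that gave an IC50 in retests scored well above the rest, so higher reads as stronger inhibition. Size under these conditions: about 69,000 compounds, about 31 of them at 50% or above in at least one test.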

Each number is a percent effect as filed. How 0% and 100% were set is not recorded. Most values in the screen are low, and negative values occur. The compounds are a random part of those screened.

O=C(O)c1cc(S(=O)(=O)Nc2cnn(C3CCOCC3)c2)ccc1F read Toxoplasma: 13.31%; TcHisRS: 3.518%.
CN1N=C(C(=O)N2CCN(c3ncccn3)CC2)CCC1=O read Toxoplasma: -13.39%; TcHisRS: 2.703%.
[H][C@@]12CCCO[C@]1([H])[C@H](OCC1CCCC1)CN2C(=O)c1ccnnc1 read Toxoplasma: -9.439%.
CN(Cc1ccccc1)C(=O)CCNS(=O)(=O)c1cccnc1 read Toxoplasma: 12.44%; TcHisRS: 10%.
Cc1cc(NC(=O)C2CCN(c3nnc(C)c(C)c3C#N)CC2)no1 read Toxoplasma: 4.475%; TcHisRS: 12.71%.
Cc1cc(C)c(S(=O)(=O)Nc2ccccc2CC(F)(F)F)cc1C(=O)O read Toxoplasma: 0.7834%; TcHisRS: -0.5618%.
CC(=O)N1CCCN(C(=O)CCc2c(C)noc2C)CC1 read Toxoplasma: -6.634%; TcHisRS: 1.141%.
CCc1nc(C2CCCN2Cc2noc(Cc3ccccc3)n2)no1 (centres undefined) read Toxoplasma: 3.59%; TcHisRS: -0.8403%.
N#Cc1ccc(CNCCS(=O)(=O)N2CCc3ccccc32)cc1 read Toxoplasma: -0.1136%; TcHisRS: 10%.
COc1cccc2c1N(Cc1nc3c(cnn3C)c(=O)[nH]1)CCC2 read Toxoplasma: -3.894%; TcHisRS: -2.597%.
Cc1ccsc1C(=O)N(C)Cc1ccncc1 read Toxoplasma: 5.853%; TcHisRS: 1.775%.
O=C1CCN(C(=O)CCc2ccc(Cl)cc2Cl)CCN1 read Toxoplasma: -16.33%; TcHisRS: 10.1%.
Cc1cc(C(=O)N2CCc3nnc(N)cc3C2)c(C)n1C1CC1 read Toxoplasma: 0.1687%; TcHisRS: 7.895%.
Cc1noc(C)c1CN1CCC2(CC1)NC(=O)CC2c1ccncc1 (centres undefined) read Toxoplasma: -3.151%; TcHisRS: -0.8264%.
Cc1cc(NC(=O)CN2CCN(c3nccs3)C(C)C2)n(C)n1 (centres undefined) read Toxoplasma: -1.185%; TcHisRS: 0.3831%.
Cc1cnc(N2C[C@@H]3[C@@H](C(=O)NC(C)C)CCS(=O)(=O)[C@@H]3C2)nc1 read TcHisRS: 6.557%.
Cc1nn(CCO)c(C)c1CN1CCN(C2CCCCC2)C(=O)C1 read Toxoplasma: -7.073%; TcHisRS: 2.4%.
O=C(C1CC1)N1CCC(c2nc(-c3ccccc3)n[nH]2)CC1 read Toxoplasma: 1.181%; TcHisRS: 5.419%.
Cn1cc(C(=O)N2CCCCC2CCc2ccccc2)cn1 (centres undefined) read Toxoplasma: 8.776%; TcHisRS: 5.946%.
Cc1ccc(NC(=O)N(CCO)CCO)c(OCc2ccccc2)c1 read Toxoplasma: 9.231%; TcHisRS: 2.618%.
Cc1cc2c(c(-c3cncc(C(=O)N4CCCC4)n3)c1)OC(CN)C2 (centres undefined) read Toxoplasma: 3.917%; TcHisRS: 11.8%.
CC1c2ncc(CNC(=O)C3CC3)n2CCN1CC1CCC1 (centres undefined) read TcHisRS: 1.905%.
CCN(CC)[C@@H]1CN(S(=O)(=O)c2cn(C)cn2)[C@@H]2CCCO[C@H]12 read TcHisRS: 8.387%.
Cc1cc(C(=O)NCCN2CCCC(C)C2)nn1C (centres undefined) read Toxoplasma: -1.906%; TcHisRS: 5.344%.
O=C(c1ccc(O)cn1)N1CCOC(c2ccc(Cl)c(Cl)c2)C1 (centres undefined) read Toxoplasma: 10.39%; TcHisRS: 3.59%.
Cc1cc(N2CCC(c3n[nH]c4nccnc34)C2)ncn1 (centres undefined) read Toxoplasma: 26.72%; TcHisRS: -0.7463%.
Cc1ccc(Oc2ccc(NC(=O)NCC3CCOC3)cn2)cc1C (centres undefined) read Toxoplasma: -4.135%; TcHisRS: -0.7634%.
Cc1noc(C)c1CNc1cc(N2CCCC2CO)ncn1 (centres undefined) read Toxoplasma: -0.9561%; TcHisRS: -0.3759%.
Cc1cc(=O)n2nc(Oc3cccc(C(N)=O)c3)sc2n1 read Toxoplasma: -6.182%; TcHisRS: 9.453%.
CC(=O)N(C)CC(=O)Nc1cc(C(F)(F)F)c[nH]c1=O read Toxoplasma: -4.89%; TcHisRS: 14.29%.
Cc1[nH]c2ccc(Cl)cc2c1CCNc1ncnc2c1CCNC2 read Toxoplasma: 11.45%; TcHisRS: 22.99%.
O=C(NCC(Cc1cccc(F)c1)n1cccc1)C1CC1 (centres undefined) read Toxoplasma: 20.72%; TcHisRS: 1.031%.
Cc1cc(CN(CCO)c2ccc(Br)cc2)on1 read Toxoplasma: -9.563%; TcHisRS: 3.415%.
O=C(c1ccc2c(c1)OCO2)N1CCC(C(=O)O)(c2ccccc2)CC1 read Toxoplasma: -9.808%; TcHisRS: 2.959%.
O=C(O)C(F)(F)F.[H][C@@]12C[C@@H](OCc3ccccc3F)CN1CCN(c1ncccn1)C2 read Toxoplasma: -1.348%.
CCc1n[nH]c(C2CN(C(=O)c3ccc4c(c3)CCC4)CCO2)n1 (centres undefined) read Toxoplasma: 11.66%; TcHisRS: 0.2915%.
COc1ccccc1OCCNC(=O)NCc1nc(C)no1 read Toxoplasma: 4.182%; TcHisRS: 8.021%.
CC(C)n1ccnc1CN1CCCN(C(=O)COC2CCCC2)CC1 read Toxoplasma: -2.981%; TcHisRS: 2.632%.
CCOc1ccc(NC2CCN(C3CC3)C2=O)cn1 (centres undefined) read TcHisRS: 9.195%.
CCC1CN(C(=O)COc2ccc(NC(C)=O)cc2)CCO1 (centres undefined) read Toxoplasma: 6.538%; TcHisRS: 4.712%.
CCCOC1CCCN(Cc2nc(-c3ccc(F)cc3F)oc2C)C1 (centres undefined) read Toxoplasma: 13.37%; TcHisRS: 2.809%.
CCOCc1nnc2n1CCN(Cc1c(C)noc1C)CC2 read TcHisRS: 1.031%.
CC(C(=O)NCc1ccc(-n2cncn2)nc1)S(C)(=O)=O (centres undefined) read Toxoplasma: 2.316%; TcHisRS: -2.521%.
COCc1cccc(S(=O)(=O)NCc2cnn(C)c2C)c1 read Toxoplasma: 6.169%; TcHisRS: 6.878%.

The first 5 entries again:

{"compound": "O=C(O)c1cc(S(=O)(=O)Nc2cnn(C3CCOCC3)c2)ccc1F", "Toxoplasma": 13.31, "TcHisRS": 3.518}
{"compound": "CN1N=C(C(=O)N2CCN(c3ncccn3)CC2)CCC1=O", "Toxoplasma": -13.39, "TcHisRS": 2.703}
{"compound": "[H][C@@]12CCCO[C@]1([H])[C@H](OCC1CCCC1)CN2C(=O)c1ccnnc1", "Toxoplasma": -9.439}
{"compound": "CN(Cc1ccccc1)C(=O)CCNS(=O)(=O)c1cccnc1", "Toxoplasma": 12.44, "TcHisRS": 10}
{"compound": "Cc1cc(NC(=O)C2CCN(c3nnc(C)c(C)c3C#N)CC2)no1", "Toxoplasma": 4.475, "TcHisRS": 12.71}